Source: PubChem BioAssay AID540256 (National Center for Advancing Translational Sciences (NCATS), 2011)
About 3,700 (1.2%) of roughly 300,000 compounds were called active. The inconclusive results got no clear call from the source; some entries with a clear call stand among them for comparison. The call rests on the fitted dose curve; tested in HEK293 cells. A potency beside an inconclusive call is a rough fit, not a confirmed value.

Test: qHTS for Inhibitors of binding or entry into cells for Lassa Virus; further: nearly all actives have a fitted effect of over 50% in size
Settings: Lassa virus pseudotype entry inhibition, cell reporter; activity change, negative = inhibition: at 37.9 µM (top of the series) unless noted
On the % scale 0 is the no-effect control and ±100 the full control effect; potency means the concentration at half of the fitted maximal effect.

Row | SMILES | Potency | activity change, negative = inhibition
1 | CCCCn1c(/N=C/c2c[nH]c3ccccc23)nc2ccccc21 | inconclusive: 2.06 µM [inhibitor, partial curve, poor fit] | 
2 | CCN(CC(=O)NCc1ccc(Cl)cc1)C(=O)c1cnc(Cl)c(Cl)c1 |  | inactive: -3.61%
3 | O=C(N/N=C/c1coc2ccccc2c1=O)c1cccc([N+](=O)[O-])c1 |  | inactive: 6.69%
4 | Cc1ccc(-n2c(SCC(=O)N3c4ccccc4Sc4ccccc43)nnc2-c2ccncc2)cc1 | inconclusive: 8.91 µM [activator, partial curve, poor fit] | 
5 | COc1ccc(-c2nc(SCC(=O)NC3CCCC3)c(-c3ccc(C)cc3)[nH]2)cc1OC | inconclusive: 35.5 µM [inhibitor, single point] | 
6 | O=C1CNC(=O)/C(=C\c2ccc(F)cc2)N1 |  | inactive: 1.29% [at 46.1 µM]
7 | CC(C)Cc1cc(C(=O)N2N=C(C(F)F)CC2(O)C(F)F)c2ccccc2n1 (stereo unspecified) |  | inactive: -8.55%
8 | CCOC(=O)C1CCCN(S(=O)(=O)c2ccc3c(c2)oc(=O)n3C)C1 (stereo unspecified) |  | inactive: 3.97% [at 46.1 µM]
9 | COc1ccc(CNC(=O)Cc2csc3nc(-c4ccc(F)cc4)cn23)cc1 |  | inactive: -0.463% [at 46.1 µM]
10 | O=C(CSc1ccc(-c2ccccn2)nn1)NCc1ccc(F)cc1 |  | inactive: -3.62%
11 | Cc1ccccc1C(=O)NCCc1sc(-c2ccc(Cl)cc2)nc1C | inconclusive: 11.2 µM [activator, partial curve, poor fit] | 
12 | Cc1cccc(CSC2=NN3CCCC(=O)N=C3S2)c1 | inconclusive: 5.17 µM [activator, full curve, poor fit] | 
13 | CCOc1ccc(S(=O)(=O)N(C)c2ccc(OCC(=O)NCc3ccco3)cc2)cc1 | inconclusive: 12.6 µM [inhibitor, partial curve] | 
14 | CC(C)NC(=O)Nc1ccc(Br)cc1Cl | inconclusive: 0.562 µM [inhibitor, full curve, poor fit] | 
15 | COc1ccc(/C=N/N=C/c2ccc(OC)c(OC)c2)cc1OC |  | inactive: -1.83%
16 | O=C(CSc1ccc(-c2ccccn2)nn1)Nc1cccc(F)c1 | inconclusive: 25.1 µM [inhibitor, single point] | 
17 | CS(=O)(=O)c1ccc(NC(=O)c2cccc(S(=O)(=O)N3CCN(Cc4ccccc4)CC3)c2)cc1 | inconclusive: 14.1 µM [inhibitor, single point] | 
18 | Cc1ccc(CNC(=O)C(CCC(N)=O)NC(=O)OCc2ccccc2)cc1 (stereo unspecified) |  | inactive: -4.9%
19 | Cc1cc(C(=O)NCCC2=CCCCC2)c(C)o1 | inconclusive: 23.1 µM [inhibitor, single point] | 
20 | CC(C)Oc1cccc(C(=O)C2CCCN(Cc3cnc(N4CCOCC4)s3)C2)c1 (stereo unspecified) | inconclusive: 18.3 µM [inhibitor, partial curve, poor fit] | 
21 | Cc1ccc(C)c(N2CCN(C(=O)c3cc(S(=O)(=O)N4CCOCC4)ccc3F)CC2)c1 | inconclusive: 12.6 µM [inhibitor, partial curve, poor fit] | 
22 | Fc1ccc(OCc2nnc(-c3ccccc3Br)o2)c(Cl)c1 |  | inactive: 12.7%
23 | CCc1ccc(Nc2nnc(-n3nc(C)cc3C)c3ccccc23)cc1 | inconclusive: 2.24 µM [inhibitor, single point] | 

Row | SMILES | Potency | activity change, negative = inhibition
24 | CC1CN(c2nc3ccccn3c(=O)c2/C=C(\C#N)S(=O)(=O)c2ccccc2)CC(C)O1 (stereo unspecified) |  | inactive: 6.57%
25 | COc1cccc(/C=C/C(=O)Nc2ccc(OC)nc2)c1 | inconclusive: 6.31 µM [inhibitor, single point] | 
26 | Nc1c2c3c(sc2nc(=O)n1N)CCCC3 | inconclusive: 0.146 µM [inhibitor, full curve, poor fit] | 
27 | COCCNc1nc2sc3c(c2c(=O)n1Cc1ccco1)CCCCC3 | inconclusive: 29.1 µM [inhibitor, single point] | 
28 | C=CCn1c(=O)c2c3c(sc2n2c(Nc4ccccc4)nnc12)CCCC3 | inconclusive: 35.5 µM [inhibitor, single point] | 
29 | CCOC(=O)CN(C)C(=O)CCc1nnc(-c2ccsc2)o1 |  | inactive: -29.6% [at 46.1 µM]
30 | Nc1c(C(=O)NCCc2ccccc2)c2nc3ccccc3nc2n1CCN1CCOCC1 |  | inactive: -28.3%
31 | CC1(C)C(c2ccccc2)=NC(c2ccccc2)N1O (stereo unspecified) |  | inactive: 0.386%
32 | Cc1cccc(-c2cc(NC(=O)COc3ccccc3F)n(-c3ccccc3)n2)c1 | inconclusive: 35.5 µM [activator, single point] | 
33 | COc1ccc(-c2csc3nc(-c4cccnc4)nc(Cl)c23)cc1OC | inconclusive: 35.5 µM [inhibitor, single point] | 
34 | O=C1C(c2ccc(C(F)(F)F)cc2)=C(Nc2ccc(Cl)cc2)c2ccccc21 |  | inactive: -4.76% [at 46.1 µM]
35 | O=C(Nc1ccc(Cl)cn1)c1ccc(Oc2ccccc2)cc1 | inconclusive: 25.1 µM [inhibitor, partial curve, poor fit] | 
36 | O=C(COC(=O)Cn1nnc2ccccc21)Nc1ccccc1Br | inconclusive: 3.98 µM [inhibitor, single point] | 
37 | C/C(=N\Nc1ncc(Cl)cc1Cl)c1ccccn1 | inconclusive: 2.82 µM [inhibitor, full curve, poor fit] | 
38 | Cc1ccc(C(=O)Nc2cc3c(cc2Cl)OCCCO3)cc1 | inconclusive: 1.26 µM [activator, single point] | 
39 | Cc1ccccc1C(=O)Nc1nnc(S(=O)(=O)N2CCCc3ccccc32)s1 |  | inactive: 6.91% [at 46.1 µM]
40 | COc1ccc(S(=O)(=O)N(C)C)cc1NC(=O)CN1C(=O)NC2(CCCC2)C1=O | inconclusive: 3.55 µM [inhibitor, partial curve, poor fit] | 
41 | Cn1c(=O)c2c(nc3n2CC(CO)O3)n(C)c1=O (stereo unspecified) |  | inactive: -3.82% [at 46.1 µM]
42 | CCOC(=O)CSc1nc(N2CCOCC2)c2c(c1C#N)CC(C)(C)N(C)C2 |  | inactive: 24.7%
43 | Cc1cc(C)n(CCN(C)c2nc3nonc3nc2N2CCCCC2)n1 | inconclusive: 17.8 µM [activator, partial curve, poor fit] | 
44 | COc1ccc(C(=O)Nc2cc(C(=O)NCCc3ccccc3)ccc2Cl)cc1 |  | inactive: -5.86%
45 | C/C(CCC12CC3CC(CC(C3)C1)C2)=N\NC(N)=S | inconclusive: 5.17 µM [inhibitor, partial curve, poor fit] | 
46 | COc1ccc(S(=O)(=O)N(CC(=O)NCC2CCCO2)c2ccc(Cl)cc2)cc1 (stereo unspecified) | inconclusive: 1 µM [inhibitor, full curve, poor fit] | 

Some of the entries so far, with each value named:
Cc1ccc(C(=O)Nc2cc3c(cc2Cl)OCCCO3)cc1
  Potency: inconclusive: 1.26 µM [activator, single point]
Cc1ccccc1C(=O)Nc1nnc(S(=O)(=O)N2CCCc3ccccc32)s1
  activity change, negative = inhibition: inactive: 6.91% [at 46.1 µM]
C/C(CCC12CC3CC(CC(C3)C1)C2)=N\NC(N)=S
  Potency: inconclusive: 5.17 µM [inhibitor, partial curve, poor fit]
